Assay results as given in the supplement of paper PMC11438910.
Some of the results follow. The signal is at background level for most entries.

How the values were obtained:
Experiment in all cases: fluorescence intensity of antibody binding to polysaccharide-coupled beads; higher = stronger binding
[1] = target: pneumococcal polysaccharide Pn25A
Procedure: (§1)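 Recombinant rhesus-murine chimeric IgG1 antibodies were tested against antigen-coupled MagPlex beads in a 96-plex Luminex direct immunoassay (dLIA). The beads carried pneumococcal capsular polysaccharides of 93 serotypes plus C-polysaccharides. Antibody was added at 0.1–12,500 ng/mL for 1 h, then PE anti-mouse IgG, and net MFI was read on a Bio-Plex 3D. Only the rhesus variable regions are printed; constant regions are murine IgG1/kappa/lambda, and the signal peptide is MGWSCIILFLVATATGVHS.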

[2] = target: pneumococcal polysaccharide Pn25F
Procedure: as §1

[3] = target: pneumococcal polysaccharide Pn27
Procedure: as §1

[4] = target: pneumococcal polysaccharide Pn28A
Procedure: as §1

[5] = target: pneumococcal polysaccharide Pn28F
Procedure: as §1

[6] = target: pneumococcal polysaccharide Pn29
Procedure: as §1

[7] = target: pneumococcal polysaccharide Pn3
Procedure: as §1

[8] = target: pneumococcal polysaccharide Pn31
Procedure: as §1

[9] = target: pneumococcal polysaccharide Pn32A
Procedure: as §1

[10] = target: pneumococcal polysaccharide Pn32F
Procedure: as §1

[11] = target: pneumococcal polysaccharide Pn33A
Procedure: as §1

[12] = target: pneumococcal polysaccharide Pn33B
Procedure: as §1

[13] = antibody concentration 0.1 ng/mL
[14] = antibody concentration 0.534724 ng/mL
[15] = antibody concentration 2.8593 ng/mL
[16] = antibody concentration 15.2894 ng/mL
[17] = antibody concentration 81.7561 ng/mL
[18] = antibody concentration 437.17 ng/mL
[19] = antibody concentration 2337.65 ng/mL
[20] = antibody concentration 12500 ng/mL

B1: 4-173.1 (protein)
chain 1: QLQLQESGPGLVKPSETLSLTCAVSGASISSNYWSWIRQAPGKGLEWIGRISGSSGSTDYNPSLKSRVTISTDTSKNQFSLKLNSVTAADTAVYYCARVSYWGHYGDYWGQGVLVTVSS
chain 2: QPVLTQPSSHSASPGAPARLTCTLSSGFSVGDFWIRWYQQKPGSPPRYLLYYHSDSDKHQGSGVPSRFSGSNDASANAGILHISGLQPEDEADYYCCTWHGNSKTQIFGAGTRLTVL
Q: What does the source list for B1?
A: fluorescence intensity [1, 13]: 25.5 MFI; fluorescence intensity [1, 14]: 25 MFI; fluorescence intensity [1, 15]: 23.5 MFI; fluorescence intensity [1, 16]: 24 MFI; fluorescence intensity [1, 17]: 25.5 MFI; fluorescence intensity [1, 18]: 25.5 MFI; fluorescence intensity [1, 19]: 27 MFI; fluorescence intensity [1, 20]: 31.5 MFI; fluorescence intensity [2, 13]: 31.5 MFI; fluorescence intensity [2, 14]: 31 MFI; fluorescence intensity [2, 15]: 32 MFI; fluorescence intensity [2, 16]: 31.5 MFI; fluorescence intensity [2, 17]: 33 MFI; fluorescence intensity [2, 18]: 32.5 MFI; fluorescence intensity [2, 19]: 31.5 MFI; fluorescence intensity [2, 20]: 38.8 MFI; fluorescence intensity [3, 13]: 16.5 MFI; fluorescence intensity [3, 14]: 17 MFI; fluorescence intensity [3, 15]: 18 MFI; fluorescence intensity [3, 16]: 18.5 MFI; fluorescence intensity [3, 17]: 18.2 MFI; fluorescence intensity [3, 18]: 18 MFI; fluorescence intensity [3, 19]: 23 MFI; fluorescence intensity [3, 20]: 48.5 MFI; fluorescence intensity [4, 13]: 26 MFI; fluorescence intensity [4, 14]: 27 MFI; fluorescence intensity [4, 15]: 28.5 MFI; fluorescence intensity [4, 16]: 28 MFI; fluorescence intensity [4, 17]: 27 MFI; fluorescence intensity [4, 18]: 29.2 MFI; fluorescence intensity [4, 19]: 28 MFI; fluorescence intensity [4, 20]: 33 MFI; fluorescence intensity [5, 13]: 30 MFI; fluorescence intensity [5, 14]: 29.5 MFI; fluorescence intensity [5, 15]: 32.5 MFI; fluorescence intensity [5, 16]: 30.5 MFI; fluorescence intensity [5, 17]: 31.5 MFI; fluorescence intensity [5, 18]: 30.5 MFI; fluorescence intensity [5, 19]: 32.5 MFI; fluorescence intensity [5, 20]: 39.5 MFI; fluorescence intensity [6, 13]: 17.5 MFI; fluorescence intensity [6, 14]: 16 MFI; fluorescence intensity [6, 15]: 17.2 MFI; fluorescence intensity [6, 16]: 17.5 MFI; fluorescence intensity [6, 17]: 18.5 MFI; fluorescence intensity [6, 18]: 18.5 MFI; fluorescence intensity [6, 19]: 21.5 MFI; fluorescence intensity [6, 20]: 32 MFI; fluorescence intensity [7, 13]: 15.5 MFI; fluorescence intensity [7, 14]: 18.5 MFI; fluorescence intensity [7, 15]: 31 MFI; fluorescence intensity [7, 16]: 94.2 MFI; fluorescence intensity [7, 17]: 438 MFI; fluorescence intensity [7, 18]: 1960 MFI; fluorescence intensity [7, 19]: 7620 MFI; fluorescence intensity [7, 20]: 8590 MFI; fluorescence intensity [8, 13]: 13.8 MFI; fluorescence intensity [8, 14]: 14 MFI; fluorescence intensity [8, 15]: 15 MFI; fluorescence intensity [8, 16]: 15 MFI; fluorescence intensity [8, 17]: 15.5 MFI; fluorescence intensity [8, 18]: 14.8 MFI; fluorescence intensity [8, 19]: 16.5 MFI; fluorescence intensity [8, 20]: 32.5 MFI; fluorescence intensity [9, 13]: 17 MFI; fluorescence intensity [9, 14]: 17 MFI; fluorescence intensity [9, 15]: 19.5 MFI; fluorescence intensity [9, 16]: 19 MFI; fluorescence intensity [9, 17]: 19.5 MFI; fluorescence intensity [9, 18]: 19 MFI; fluorescence intensity [9, 19]: 20.8 MFI; fluorescence intensity [9, 20]: 28.5 MFI; fluorescence intensity [10, 13]: 28.5 MFI; fluorescence intensity [10, 14]: 27.8 MFI; fluorescence intensity [10, 15]: 28 MFI; fluorescence intensity [10, 16]: 26.5 MFI; fluorescence intensity [10, 17]: 28 MFI; fluorescence intensity [10, 18]: 29 MFI; fluorescence intensity [10, 19]: 33 MFI; fluorescence intensity [10, 20]: 44.5 MFI; fluorescence intensity [11, 13]: 19.5 MFI; fluorescence intensity [11, 14]: 19 MFI; fluorescence intensity [11, 15]: 18 MFI; fluorescence intensity [11, 16]: 19 MFI; fluorescence intensity [11, 17]: 20.5 MFI; fluorescence intensity [11, 18]: 21.2 MFI; fluorescence intensity [11, 19]: 27 MFI; fluorescence intensity [11, 20]: 97.2 MFI; fluorescence intensity [12, 13]: 19 MFI; fluorescence intensity [12, 14]: 19 MFI
